{"source": "PubChem BioAssay AID1259308 (NCATS, 2017)", "assay": "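Genes whose loss raises luciferase production in HEK293 cells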 (primary screen)", "cells": "human HEK293 embryonic kidney cells stably expressing firefly luciferase (HEK-CMV-Luc2-Hygro)", "reagents": "single siRNA against human genes, 0.8 pmol siRNA per well", "time to read-out": "72 h", "measured": "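Reporter luminescence and viable-cell signal on separate replicate plates, given as percent of non-targeting control and median/MAD z-scores, plus per-cell luciferase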", "reading the numbers": "total luciferase, z-score and total luciferase, % of control: higher = more reporter protein produced", "active means": "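An siRNA counts as active if its total luciferase robust z-score exceeds 3; genes with two or more such siRNAs out of three were retested with fresh siRNAs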", "meaning of the calls": "active = raised luciferase; inactive = no rise", "note": "The whole screen tested about 59,000 reagents; below is a random part of them. Of all reagents, about 1,510 (2.6%) are marked active. 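Calls use total luciferase alone and ignore viability, so some active siRNAs may act by altering cell number.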 Entries without a mark were called inactive. Reagents against one gene are numbered here. Not all columns of the deposit are shown."}
{"gene": "SBF2 (GeneID 81846)", "siRNA no.": 1, "total luciferase, z-score": 0.271, "total luciferase, % of control": 87.3}
{"gene": "SBF2 (GeneID 81846)", "siRNA no.": 2, "total luciferase, z-score": 0.151, "total luciferase, % of control": 84.9}
{"gene": "SBF2 (GeneID 81846)", "siRNA no.": 3, "total luciferase, z-score": 1.55, "total luciferase, % of control": 113}
{"gene": "TIAM2 (GeneID 26230)", "siRNA no.": 1, "total luciferase, z-score": 0.508, "total luciferase, % of control": 92}
{"gene": "TIAM2 (GeneID 26230)", "siRNA no.": 2, "total luciferase, z-score": -1.84, "total luciferase, % of control": 45.4}
{"gene": "TIAM2 (GeneID 26230)", "siRNA no.": 3, "total luciferase, z-score": 1.73, "total luciferase, % of control": 116}
{"gene": "OR2M2 (GeneID 391194)", "siRNA no.": 1, "total luciferase, z-score": 1.84, "total luciferase, % of control": 118}
{"gene": "OR2M2 (GeneID 391194)", "siRNA no.": 2, "total luciferase, z-score": 2.61, "total luciferase, % of control": 134}
{"gene": "OR2M2 (GeneID 391194)", "siRNA no.": 3, "total luciferase, z-score": 0.881, "total luciferase, % of control": 99.4}
{"gene": "TFF3 (GeneID 7033)", "siRNA no.": 1, "total luciferase, z-score": -0.315, "total luciferase, % of control": 75.6}
{"gene": "TFF3 (GeneID 7033)", "siRNA no.": 2, "total luciferase, z-score": -0.522, "total luciferase, % of control": 71.5}
{"gene": "TFF3 (GeneID 7033)", "siRNA no.": 3, "total luciferase, z-score": 0.126, "total luciferase, % of control": 84.4}
{"gene": "NR4A2 (GeneID 4929)", "siRNA no.": 1, "total luciferase, z-score": 0.552, "total luciferase, % of control": 92.9}
{"gene": "NR4A2 (GeneID 4929)", "siRNA no.": 2, "total luciferase, z-score": 0.085, "total luciferase, % of control": 83.6}
{"gene": "NR4A2 (GeneID 4929)", "siRNA no.": 3, "total luciferase, z-score": 0.159, "total luciferase, % of control": 85}

Continued, starting with the last 5 of the part before.
{"gene": "TFF3 (GeneID 7033)", "siRNA no.": 2, "total luciferase, z-score": -0.522, "total luciferase, % of control": 71.5}
{"gene": "TFF3 (GeneID 7033)", "siRNA no.": 3, "total luciferase, z-score": 0.126, "total luciferase, % of control": 84.4}
{"gene": "NR4A2 (GeneID 4929)", "siRNA no.": 1, "total luciferase, z-score": 0.552, "total luciferase, % of control": 92.9}
{"gene": "NR4A2 (GeneID 4929)", "siRNA no.": 2, "total luciferase, z-score": 0.085, "total luciferase, % of control": 83.6}
{"gene": "NR4A2 (GeneID 4929)", "siRNA no.": 3, "total luciferase, z-score": 0.159, "total luciferase, % of control": 85}
{"gene": "ESR2 (GeneID 2100)", "siRNA no.": 1, "total luciferase, z-score": -0.00977, "total luciferase, % of control": 81.7}
{"gene": "ESR2 (GeneID 2100)", "siRNA no.": 2, "total luciferase, z-score": -0.0291, "total luciferase, % of control": 81.3}
{"gene": "ESR2 (GeneID 2100)", "siRNA no.": 3, "total luciferase, z-score": -2.35, "total luciferase, % of control": 35.1}
{"gene": "STAT3 (GeneID 6774)", "siRNA no.": 1, "total luciferase, z-score": -1.37, "total luciferase, % of control": 54.7}
{"gene": "STAT3 (GeneID 6774)", "siRNA no.": 2, "total luciferase, z-score": -0.21, "total luciferase, % of control": 77.7}
{"gene": "STAT3 (GeneID 6774)", "siRNA no.": 3, "total luciferase, z-score": 0.131, "total luciferase, % of control": 84.5}
{"gene": "GPRC5B (GeneID 51704)", "siRNA no.": 1, "total luciferase, z-score": -0.128, "total luciferase, % of control": 79.3}
{"gene": "GPRC5B (GeneID 51704)", "siRNA no.": 2, "total luciferase, z-score": "4.73 (active)", "total luciferase, % of control": 176}
{"gene": "GPRC5B (GeneID 51704)", "siRNA no.": 3, "total luciferase, z-score": 0.42, "total luciferase, % of control": 90.2}
{"gene": "VRK1 (GeneID 7443)", "siRNA no.": 1, "total luciferase, z-score": -0.237, "total luciferase, % of control": 77.2}
{"gene": "VRK1 (GeneID 7443)", "siRNA no.": 2, "total luciferase, z-score": -0.478, "total luciferase, % of control": 72.4}
{"gene": "VRK1 (GeneID 7443)", "siRNA no.": 3, "total luciferase, z-score": 0.105, "total luciferase, % of control": 84}
{"gene": "MAIP1 (GeneID 79568)", "siRNA no.": 1, "total luciferase, z-score": 0.149, "total luciferase, % of control": 84.8}
{"gene": "MAIP1 (GeneID 79568)", "siRNA no.": 2, "total luciferase, z-score": -0.282, "total luciferase, % of control": 76.3}
{"gene": "MAIP1 (GeneID 79568)", "siRNA no.": 3, "total luciferase, z-score": 0.418, "total luciferase, % of control": 90.2}
{"gene": "FAM199X (GeneID 139231)", "siRNA no.": 1, "total luciferase, z-score": -0.722, "total luciferase, % of control": 67.5}
{"gene": "FAM199X (GeneID 139231)", "siRNA no.": 2, "total luciferase, z-score": -0.224, "total luciferase, % of control": 77.4}
{"gene": "FAM199X (GeneID 139231)", "siRNA no.": 3, "total luciferase, z-score": 0.212, "total luciferase, % of control": 86.1}
{"gene": "ZNF700 (GeneID 90592)", "siRNA no.": 1, "total luciferase, z-score": 1.81, "total luciferase, % of control": 118}
{"gene": "ZNF700 (GeneID 90592)", "siRNA no.": 2, "total luciferase, z-score": 1.23, "total luciferase, % of control": 106}
{"gene": "ZNF700 (GeneID 90592)", "siRNA no.": 3, "total luciferase, z-score": 0.587, "total luciferase, % of control": 93.6}
{"gene": "WNK3 (GeneID 65267)", "siRNA no.": 1, "total luciferase, z-score": 0.0519, "total luciferase, % of control": 82.9}
{"gene": "WNK3 (GeneID 65267)", "siRNA no.": 2, "total luciferase, z-score": -0.409, "total luciferase, % of control": 73.7}
{"gene": "WNK3 (GeneID 65267)", "siRNA no.": 3, "total luciferase, z-score": -0.589, "total luciferase, % of control": 70.2}
{"gene": "CALCOCO1 (GeneID 57658)", "siRNA no.": 1, "total luciferase, z-score": 0.141, "total luciferase, % of control": 84.7}
{"gene": "CALCOCO1 (GeneID 57658)", "siRNA no.": 2, "total luciferase, z-score": -1.23, "total luciferase, % of control": 57.5}
{"gene": "CALCOCO1 (GeneID 57658)", "siRNA no.": 3, "total luciferase, z-score": -0.112, "total luciferase, % of control": 79.7}
